From publication PMC4773494
No constants are given. Whether binding was seen depends on the method and setting. In cells and extracts the contact can be indirect. Some results given as binding are weak or reduced against the parent protein; the word gives no strength.

Chains of the proteins cited; added tags and fusions are not shown.
UniProt Q9Z2V6: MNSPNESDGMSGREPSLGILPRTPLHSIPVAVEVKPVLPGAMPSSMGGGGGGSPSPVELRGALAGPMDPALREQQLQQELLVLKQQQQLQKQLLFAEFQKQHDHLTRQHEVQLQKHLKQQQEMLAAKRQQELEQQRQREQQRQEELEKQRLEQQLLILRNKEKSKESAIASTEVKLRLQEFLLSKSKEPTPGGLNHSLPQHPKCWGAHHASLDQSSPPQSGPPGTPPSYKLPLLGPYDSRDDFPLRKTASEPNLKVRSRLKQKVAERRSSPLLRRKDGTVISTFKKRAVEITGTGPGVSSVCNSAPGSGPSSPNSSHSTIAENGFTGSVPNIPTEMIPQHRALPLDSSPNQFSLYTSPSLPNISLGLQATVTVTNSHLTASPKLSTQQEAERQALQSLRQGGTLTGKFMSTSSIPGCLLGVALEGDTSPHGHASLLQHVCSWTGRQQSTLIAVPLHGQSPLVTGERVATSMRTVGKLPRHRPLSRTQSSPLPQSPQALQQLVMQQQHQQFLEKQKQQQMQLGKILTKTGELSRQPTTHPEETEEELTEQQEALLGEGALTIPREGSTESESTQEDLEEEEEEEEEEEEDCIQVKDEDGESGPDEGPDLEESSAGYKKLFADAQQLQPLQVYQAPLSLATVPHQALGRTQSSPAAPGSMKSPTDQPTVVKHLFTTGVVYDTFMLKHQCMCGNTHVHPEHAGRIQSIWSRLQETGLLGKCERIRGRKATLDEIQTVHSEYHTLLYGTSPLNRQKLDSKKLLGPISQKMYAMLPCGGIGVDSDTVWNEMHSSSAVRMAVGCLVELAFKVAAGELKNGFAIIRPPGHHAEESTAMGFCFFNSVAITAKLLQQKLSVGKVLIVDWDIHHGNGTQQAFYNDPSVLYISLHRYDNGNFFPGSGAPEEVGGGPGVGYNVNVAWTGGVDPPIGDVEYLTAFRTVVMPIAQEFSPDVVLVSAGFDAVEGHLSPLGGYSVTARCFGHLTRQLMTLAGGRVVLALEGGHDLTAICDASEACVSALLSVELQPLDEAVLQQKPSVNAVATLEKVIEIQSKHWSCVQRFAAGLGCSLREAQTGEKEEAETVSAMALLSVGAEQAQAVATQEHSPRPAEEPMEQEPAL
UniProt P42227: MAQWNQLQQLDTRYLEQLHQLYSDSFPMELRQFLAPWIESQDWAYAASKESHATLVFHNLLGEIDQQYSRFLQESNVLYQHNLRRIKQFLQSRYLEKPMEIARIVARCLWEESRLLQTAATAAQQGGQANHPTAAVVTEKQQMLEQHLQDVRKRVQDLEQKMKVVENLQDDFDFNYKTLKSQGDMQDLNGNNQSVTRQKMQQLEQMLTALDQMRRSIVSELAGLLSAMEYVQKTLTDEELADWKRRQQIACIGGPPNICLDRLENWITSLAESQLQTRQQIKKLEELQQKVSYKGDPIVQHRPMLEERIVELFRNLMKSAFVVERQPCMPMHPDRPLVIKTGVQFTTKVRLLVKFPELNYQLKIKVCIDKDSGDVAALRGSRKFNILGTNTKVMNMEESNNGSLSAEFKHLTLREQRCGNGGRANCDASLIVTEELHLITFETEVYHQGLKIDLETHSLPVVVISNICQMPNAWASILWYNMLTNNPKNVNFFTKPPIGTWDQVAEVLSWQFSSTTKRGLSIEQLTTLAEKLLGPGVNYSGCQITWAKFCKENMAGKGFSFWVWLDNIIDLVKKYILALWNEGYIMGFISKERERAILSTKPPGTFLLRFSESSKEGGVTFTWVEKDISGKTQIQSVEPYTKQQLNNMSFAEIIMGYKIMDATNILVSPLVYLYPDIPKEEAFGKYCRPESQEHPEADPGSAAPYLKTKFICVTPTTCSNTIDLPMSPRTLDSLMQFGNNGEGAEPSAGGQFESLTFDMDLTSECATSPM

Target: histone deacetylase 5 (mouse (endogenous in CLU177)) (UniProt Q9Z2V6)
Test: co-IP; endogenous proteins; CLU177 cells lysed in NP40 lysis buffer (25 mM Tris-HCl pH 7.4, 150 mM NaCl, 1 mM EDTA, 1% NP-40); 500 ug lysate with 4 ug anti-HDAC5, protein A/G magnetic beads overnight at 4 C, washed with PBS 0.02% Tween 20; blots for HDAC5, STAT3 and pSTAT3 T705

binding: binds
Substance: STAT3 (from UniProt P42227 1-770)
